Reference: US10603701B2, “Bioremediation of 1,4-dioxane and chlorinated aliphatic hydrocarbons by propanotrophic bacteria” (New Jersey Institute of Technology, priority 2018, dated 2020)

Experiments:
Assay type in all cases: cell-based
[1] = test system: Azoarcus sp. DD4; test: Cometabolism of CAHs by DD4 resting cells after being fed with propane; conditions: 0.13 mg protein mL^−1, 24 h, headspace GC
[2] = test system: Azoarcus sp. DD4; test: Biodegradation of concurrent dioxane and 1,1-DCE by DD4 in microcosms; conditions: for degradation with 1-propanol compared to the treatment fed with propane: concurrent 1,1-DCE and dioxane
Procedure: Biodegradation of concurrent dioxane and 1,1-DCE by Azoarcus sp. DD4. To evaluate the performance of DD4 in removing dioxane and 1,1-DCE when both compounds are concurrently present, microcosms were prepared with DD4 inoculum in NMS medium and dosed with dioxane and 1,1-DCE. Two primary substrates were used, including propane and 1-propanol.

[3] = test system: Mycobacterium sp. DT1; test: Cometabolism of other CAHs by DT1 resting cells after being fed with propane; conditions: 0.22 mg protein mL^−1, headspace GC
[4] = test system: Azoarcus sp. DD4; test: Co-metabolism of dioxane by DD4 using propane as the primary substrate; conditions: NMS, 30° C.
[5] = test system: Mycobacterium sp. DT1; test: Cometabolism of dioxane by DT1 using propane as the primary substrate

Structure (SMILES) | cometabolism by DD4 resting cells after growth with propane [1] | cometabolism by DT1 resting cells after growth with propane [3] | also measured
C=C(Cl)Cl [1,1-DCE, 1,1-dichloroethylene] | able to cometabolize | no degradation | degradation with 1-propanol compared to the treatment fed with propane [2]: approximately three times faster; day on which fully degraded ([2]; propane as primary substrate, dioxane concurrently present): 23 days
C1COCCO1 [dioxane, 1,4-dioxane] | – | – | lag time before dioxane degradation ([4]; DD4 grown on 1.5% propane): approximately 60 h; dioxane concentration at the incubation of 96 h ([4]; initial 18.9±1.8 mg/L dioxane, 1.5% propane): 0.6 ± 0.1 mg/L; degradation with 1-propanol compared to the treatment fed with propane [2]: approximately three times faster; lag time of dioxane degradation by DT1 ([5]; 3.3% propane, BSM with 0.1% Tween-80, 30° C.): without a lag time; dioxane concentration at the incubation of 96 h ([5]; initial 20.1±1.4 mg/L, below the MDL of GC-FID): < 0.1 mg/L
CC(Cl)(Cl)Cl [1,1,1-TCA, 1,1,1-trichloroethane] | no degradation | no degradation | –
Cl/C=C\Cl [cis-1,2-DCE, cis-1,2-dichloroethene] | able to cometabolize | able to cometabolize | –
ClC=C(Cl)Cl [TCE, trichloroethene] | no degradation | – | –
C=CCl [VC, vinyl chloride] | – | able to cometabolize | –
ClCCCl [1,2-DCA, 1,2-dichloroethane] | able to cometabolize | able to cometabolize | –
CC(Cl)Cl [1,1-DCA, 1,1-dichloroethane] | – | able to cometabolize | –
Cl/C=C/Cl [trans-1,2-DCE] | – | able to cometabolize | –
